system: HLA molecules of primary tumor and normal tissue samples (cancer entities); experiment: Identification and label-free LC-MS quantitation of HLA-presented tumor-associated peptides on tissue samples; design: species or system human; conditions: FIGS. 1A-1J; HLA-A*24 positive normal (N=75) versus tumor samples (N=263), MS signal intensities

Row | Substance | over-presentation of the peptide in different cancer tissues
1 | SEQ ID NO.: 463 (VGGNVTSNF; listed as Homo sapiens) | over-presentation
2 | SEQ ID NO.: 464 (VGGNVTSSF; listed as Homo sapiens) | over-presentation

same assay, conditions: LC-MS of HLA ligands isolated from tumor tissue samples; cancer entities on which the peptide was presented

Row | Substance | Peptide Presentation on cancer entities
3 | 463 (VGGNVTSNF; listed as Homo sapiens) [compound 463] | AML, BRCA, GBC, GC, HCC, HNSCC, NSCLCsquam, OC

same assay, conditions: cancer entities on whose tumor tissue samples the HLA-presented peptide was found (LC-MS); abbreviations in the footnotes of Table 8a

Row | Substance | Peptide Presentation on cancer entities
4 | 258 (VCWNPFNNTF; listed as Homo sapiens) [compound 258] | CRC
5 | 302 (YQGSLEVLF; listed as Homo sapiens) [compound 302] | NSCLCadeno
6 | 355 (VYNNNSSRF; listed as Homo sapiens) [compound 355] | CCC, CRC, GBC, GC, HCC, HNSCC, MEL, NHL, NSCLCadeno, NSCLCother, NSCLCsquam, OC, OSCAR, PACA, PRCA, RCC, SCLC, UEC
7 | 359 (TQLPAPLRI; listed as Homo sapiens) [compound 359] | UEC
8 | 52 (SWHKATFLF; listed as Homo sapiens) [compound 52] | AML
9 | 250 (VYSDRQIYLL; listed as Homo sapiens) [compound 250] | HCC
10 | 10 (QYPEFSIEL; listed as Homo sapiens) [compound 10] | PRCA
11 | 53 (LFQRVSSVSF; listed as Homo sapiens) [compound 53] | HCC
12 | 173 (RYLSVCERL; listed as Homo sapiens) [compound 173] | NSCLCsquam
13 | 336 (VYSDLHAFY; listed as Homo sapiens) [compound 336] | CCC, GBC, HCC, NSCLCadeno, PACA
14 | 11 (RAMCAMMSF; listed as Homo sapiens) [compound 11] | PACA
15 | 159 (VFQPNPLF; listed as Homo sapiens) [compound 159] | UEC
16 | 140 (IFQHFCEEI; listed as Homo sapiens) [compound 140] | CLL
17 | 63 (LYIDKGQYL; listed as Homo sapiens) [compound 63] | GBM, HNSCC, MEL, NSCLCadeno, NSCLCsquam
18 | 5 (LQPQPQLFFSF; listed as Homo sapiens) [compound 5] | PRCA
19 | 122 (YFLRGRLYW; listed as Homo sapiens) [compound 122] | NSCLCsquam, OC
20 | 27 (LSCTATPLF; listed as Homo sapiens) [compound 27] | NSCLCadeno
21 | 82 (SYLENSASW; listed as Homo sapiens) [compound 82] | BRCA, HNSCC, NSCLCadeno, OSCAR, SCLC, UEC
22 | 38 (RYAHTLVTSVLF; listed as Homo sapiens) [compound 38] | BRCA, MEL
23 | 277 (MSAIWISAF; listed as Homo sapiens) [compound 277] | OSCAR
24 | 123 (FFLQESPVF; listed as Homo sapiens) [compound 123] | HCC
25 | 23 (VYSSFVFNLF; listed as Homo sapiens) [compound 23] | NHL
26 | 248 (CWGPHCFEM; listed as Homo sapiens) [compound 248] | NSCLCsquam
27 | 177 (KYLITTFSL; listed as Homo sapiens) [compound 177] | NSCLCadeno
28 | 22 (VYSSFVFNL; listed as Homo sapiens) [compound 22] | NHL
29 | 198 (VLAPVSGQF; listed as Homo sapiens) [compound 198] | CLL, GBC, GC, MEL, NHL, NSOLCadeno, NSCLCsquam, SCLC

Row | Substance | Peptide Presentation on cancer entities
30 | 290 (VTPKMLISF; listed as Homo sapiens) [compound 290] | CCC, NSCLCother
31 | 47 (SYLWTDNLQEF; listed as Homo sapiens) [compound 47] | OSCAR
32 | 146 (NYFLDPVTI; listed as Homo sapiens) [compound 146] | BRCA, MEL, NSCLCadeno, NSCLCsquam, OC
33 | 278 (TYESVVTGFF; listed as Homo sapiens) [compound 278] | SCLC
34 | 111 (IRPDYSFQF; listed as Homo sapiens) [compound 111] | NSCLCadeno
35 | 380 (FYIRRLPMF; listed as Homo sapiens) [compound 380] | NHL, NSCLCadeno, NSCLCsquam, OC, OSCAR, RCC
36 | 324 (RYFVSNIYL; listed as Homo sapiens) [compound 324] | GC, NSCLCadeno, NSCLCsquam, UEC
37 | 90 (TDLVQFLLF; listed as Homo sapiens) [compound 90] | RCC
38 | 311 (IQNAILHLF; listed as Homo sapiens) [compound 311] | SCLC
39 | 131 (MHRTWRETF; listed as Homo sapiens) [compound 131] | PRCA
40 | 253 (QYYCLLLIF; listed as Homo sapiens) [compound 253] | NSCLCadeno, NSCLCsquam
41 | 86 (SYLPTAERL; listed as Homo sapiens) [compound 86] | GBC, GBM, GC, HCC, NSCLCadeno, NSCLCother, NSCLCsquam, PACA, PRCA, UEC
42 | 171 (LYTVPFNLI; listed as Homo sapiens) [compound 171] | NSCLCsquam
43 | 210 (EAYSYPPATI; listed as Homo sapiens) [compound 210] | NSCLCadeno, NSCLCsquam
44 | 382 (SYPKELMKF; listed as Homo sapiens) [compound 382] | GBC, GC, HNSCC, NSCLCadeno, OC, UEC
45 | 149 (TQFFIPYTI; listed as Homo sapiens) [compound 149] | CCC, GC, NSCLCsquam, OC
46 | 350 (VYKWTEEKF; listed as Homo sapiens) [compound 350] | BRCA, NSCLCother, OSCAR
47 | 160 (YIANLISCF; listed as Homo sapiens) [compound 160] | GBC
48 | 44 (FYHEDMPLW; listed as Homo sapiens) [compound 44] | NHL
49 | 127 (FLPRAYYRW; listed as Homo sapiens) [compound 127] | PRCA
50 | 297 (LKSPRLFTF; listed as Homo sapiens) [compound 297] | GBC
51 | 323 (NYSPVTGKF; listed as Homo sapiens) [compound 323] | OSCAR
52 | 98 (LQIPVSPSF; listed as Homo sapiens) [compound 98] | MEL
53 | 272 (IYFNHRCF; listed as Homo sapiens) [compound 272] | NSCLCadeno
54 | 144 (LFDHGGTVFF; listed as Homo sapiens) [compound 144] | GBM
55 | 244 (TYIDTRTVFL; listed as Homo sapiens) [compound 244] | HCC

Source: US12060400B2, “Peptides for use in immunotherapy against cancers” (Immatics Biotechnologies GmbH, priority 2018, dated 2024)
